Laboratory results taken from the supplement of paper PMC6411743.
± gives the standard deviation of the averaged measurements. This is a selection; strong and weak results do not stand in their true shares. Most entries show no effect beyond the scatter of the controls.

Protein sequences, listed by entry. Tags and fused reporters are not part of them. Lines headed by an entry give the natural chain unless they say otherwise; changes in a name come on top.
UniProt Q9NXR1: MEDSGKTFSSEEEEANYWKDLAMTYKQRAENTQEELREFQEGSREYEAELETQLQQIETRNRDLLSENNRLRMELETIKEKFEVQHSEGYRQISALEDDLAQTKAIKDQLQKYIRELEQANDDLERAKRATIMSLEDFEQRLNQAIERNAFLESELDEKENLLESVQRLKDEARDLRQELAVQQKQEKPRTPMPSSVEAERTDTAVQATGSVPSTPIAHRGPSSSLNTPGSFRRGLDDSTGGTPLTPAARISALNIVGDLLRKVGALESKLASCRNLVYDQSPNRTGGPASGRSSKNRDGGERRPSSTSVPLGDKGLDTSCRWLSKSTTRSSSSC
UniProt Q9NXF7, whole entry: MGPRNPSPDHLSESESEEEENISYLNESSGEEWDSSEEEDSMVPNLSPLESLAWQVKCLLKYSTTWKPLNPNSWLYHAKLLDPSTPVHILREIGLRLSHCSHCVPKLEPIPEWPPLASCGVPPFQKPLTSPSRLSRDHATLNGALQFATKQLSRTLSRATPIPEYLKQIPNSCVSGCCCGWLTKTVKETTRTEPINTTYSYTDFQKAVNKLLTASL
UniProt Q9NPA0: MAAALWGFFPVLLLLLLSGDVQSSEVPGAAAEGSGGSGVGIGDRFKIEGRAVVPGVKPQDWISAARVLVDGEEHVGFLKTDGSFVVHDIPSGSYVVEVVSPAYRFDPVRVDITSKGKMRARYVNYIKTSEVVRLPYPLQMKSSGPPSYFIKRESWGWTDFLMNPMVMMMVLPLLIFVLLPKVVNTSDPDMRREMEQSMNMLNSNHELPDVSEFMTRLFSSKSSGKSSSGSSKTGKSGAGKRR
UniProt Q9NX76: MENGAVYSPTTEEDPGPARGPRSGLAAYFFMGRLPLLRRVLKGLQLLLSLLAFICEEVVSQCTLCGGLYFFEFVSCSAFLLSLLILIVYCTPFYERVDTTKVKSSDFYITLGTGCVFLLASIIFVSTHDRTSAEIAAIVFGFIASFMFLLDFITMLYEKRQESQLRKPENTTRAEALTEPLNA
UniProt Q9NQE9: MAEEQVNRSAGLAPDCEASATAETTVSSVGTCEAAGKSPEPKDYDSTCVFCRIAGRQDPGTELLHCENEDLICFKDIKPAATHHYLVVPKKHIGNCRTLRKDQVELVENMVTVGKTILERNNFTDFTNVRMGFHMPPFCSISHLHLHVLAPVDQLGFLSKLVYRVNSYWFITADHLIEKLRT
UniProt Q9NV88, whole entry: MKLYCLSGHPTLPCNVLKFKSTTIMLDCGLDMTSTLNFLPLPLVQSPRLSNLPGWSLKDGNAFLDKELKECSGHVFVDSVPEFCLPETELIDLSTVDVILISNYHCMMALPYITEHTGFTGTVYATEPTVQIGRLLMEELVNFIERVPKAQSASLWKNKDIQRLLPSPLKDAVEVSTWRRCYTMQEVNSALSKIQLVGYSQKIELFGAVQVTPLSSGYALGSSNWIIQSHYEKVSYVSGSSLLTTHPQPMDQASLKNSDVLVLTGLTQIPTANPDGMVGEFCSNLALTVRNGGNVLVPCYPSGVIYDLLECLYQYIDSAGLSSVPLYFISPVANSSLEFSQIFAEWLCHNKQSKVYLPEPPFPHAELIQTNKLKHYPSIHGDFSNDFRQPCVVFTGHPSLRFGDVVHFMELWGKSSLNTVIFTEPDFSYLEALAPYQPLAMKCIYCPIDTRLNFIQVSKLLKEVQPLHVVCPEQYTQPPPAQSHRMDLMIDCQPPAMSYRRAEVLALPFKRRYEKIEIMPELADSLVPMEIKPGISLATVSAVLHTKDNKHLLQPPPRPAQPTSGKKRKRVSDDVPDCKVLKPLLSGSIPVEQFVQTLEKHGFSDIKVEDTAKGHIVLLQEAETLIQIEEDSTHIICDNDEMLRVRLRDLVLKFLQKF
UniProt Q9NR12, whole entry: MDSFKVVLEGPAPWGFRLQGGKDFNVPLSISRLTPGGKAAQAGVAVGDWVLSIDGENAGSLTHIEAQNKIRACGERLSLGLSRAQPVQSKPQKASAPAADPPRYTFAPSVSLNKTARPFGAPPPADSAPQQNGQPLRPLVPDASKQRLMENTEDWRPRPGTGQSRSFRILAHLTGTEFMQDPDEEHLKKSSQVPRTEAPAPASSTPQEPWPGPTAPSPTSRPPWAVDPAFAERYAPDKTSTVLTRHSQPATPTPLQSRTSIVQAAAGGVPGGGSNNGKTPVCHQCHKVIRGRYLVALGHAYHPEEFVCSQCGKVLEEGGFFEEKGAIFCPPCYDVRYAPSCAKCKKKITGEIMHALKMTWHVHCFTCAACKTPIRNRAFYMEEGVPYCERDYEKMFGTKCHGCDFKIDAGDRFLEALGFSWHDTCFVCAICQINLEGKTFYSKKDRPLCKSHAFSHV
UniProt Q9NVJ2: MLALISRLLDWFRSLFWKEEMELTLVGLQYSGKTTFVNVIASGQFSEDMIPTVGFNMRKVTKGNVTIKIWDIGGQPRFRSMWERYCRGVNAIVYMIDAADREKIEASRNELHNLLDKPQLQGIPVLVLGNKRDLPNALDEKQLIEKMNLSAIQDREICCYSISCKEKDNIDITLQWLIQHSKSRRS
UniProt Q9NW82: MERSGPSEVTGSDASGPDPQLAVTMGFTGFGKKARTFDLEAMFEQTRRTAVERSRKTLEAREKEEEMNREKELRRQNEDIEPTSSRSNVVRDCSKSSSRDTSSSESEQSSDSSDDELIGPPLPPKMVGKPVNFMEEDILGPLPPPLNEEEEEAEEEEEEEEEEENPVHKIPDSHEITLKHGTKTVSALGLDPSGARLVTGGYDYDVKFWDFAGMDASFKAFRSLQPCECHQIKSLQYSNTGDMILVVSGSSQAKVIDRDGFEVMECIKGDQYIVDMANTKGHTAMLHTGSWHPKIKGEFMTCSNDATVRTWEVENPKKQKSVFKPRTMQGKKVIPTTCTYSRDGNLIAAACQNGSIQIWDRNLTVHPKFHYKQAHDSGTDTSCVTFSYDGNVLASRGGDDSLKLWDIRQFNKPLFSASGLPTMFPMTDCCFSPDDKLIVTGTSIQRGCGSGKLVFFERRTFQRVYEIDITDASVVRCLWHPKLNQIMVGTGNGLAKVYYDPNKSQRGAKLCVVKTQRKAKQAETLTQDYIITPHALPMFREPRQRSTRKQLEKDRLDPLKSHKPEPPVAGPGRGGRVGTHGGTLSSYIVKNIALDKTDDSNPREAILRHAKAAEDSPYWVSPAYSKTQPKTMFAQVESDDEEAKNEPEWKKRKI
UniProt Q9NUI1: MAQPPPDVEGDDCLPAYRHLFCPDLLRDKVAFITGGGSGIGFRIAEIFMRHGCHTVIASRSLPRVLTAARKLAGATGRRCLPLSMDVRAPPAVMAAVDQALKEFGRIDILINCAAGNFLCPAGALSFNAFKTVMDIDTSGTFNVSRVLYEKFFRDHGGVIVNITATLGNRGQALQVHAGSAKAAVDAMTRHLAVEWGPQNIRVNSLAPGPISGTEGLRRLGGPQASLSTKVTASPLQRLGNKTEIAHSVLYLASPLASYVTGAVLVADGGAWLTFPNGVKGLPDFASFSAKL
UniProt Q9NVR0: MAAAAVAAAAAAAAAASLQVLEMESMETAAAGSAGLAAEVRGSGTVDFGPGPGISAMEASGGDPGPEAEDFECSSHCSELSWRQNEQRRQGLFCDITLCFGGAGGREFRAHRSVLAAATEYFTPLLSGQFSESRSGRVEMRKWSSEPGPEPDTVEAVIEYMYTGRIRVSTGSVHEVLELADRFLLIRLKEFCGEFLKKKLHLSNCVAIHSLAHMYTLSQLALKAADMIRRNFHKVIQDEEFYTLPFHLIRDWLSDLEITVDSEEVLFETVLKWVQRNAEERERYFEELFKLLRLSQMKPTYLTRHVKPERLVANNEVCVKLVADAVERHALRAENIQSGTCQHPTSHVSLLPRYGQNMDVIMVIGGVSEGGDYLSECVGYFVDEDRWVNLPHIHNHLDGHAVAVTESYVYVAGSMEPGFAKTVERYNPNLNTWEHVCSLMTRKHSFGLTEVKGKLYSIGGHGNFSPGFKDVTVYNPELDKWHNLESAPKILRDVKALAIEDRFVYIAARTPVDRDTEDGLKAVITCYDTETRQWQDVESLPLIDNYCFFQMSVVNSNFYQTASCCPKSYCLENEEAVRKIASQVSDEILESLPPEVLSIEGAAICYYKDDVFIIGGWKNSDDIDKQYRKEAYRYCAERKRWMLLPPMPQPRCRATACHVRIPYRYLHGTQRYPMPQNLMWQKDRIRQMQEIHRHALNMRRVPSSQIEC
UniProt Q9NVZ3: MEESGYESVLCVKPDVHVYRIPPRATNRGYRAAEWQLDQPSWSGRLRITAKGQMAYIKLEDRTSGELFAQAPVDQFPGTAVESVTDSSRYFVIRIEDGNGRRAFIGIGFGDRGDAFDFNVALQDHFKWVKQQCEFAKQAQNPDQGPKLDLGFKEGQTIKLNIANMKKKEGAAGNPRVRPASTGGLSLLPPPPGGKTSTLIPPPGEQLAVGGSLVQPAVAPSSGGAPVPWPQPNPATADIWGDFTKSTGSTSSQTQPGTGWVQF
UniProt Q9NQ11: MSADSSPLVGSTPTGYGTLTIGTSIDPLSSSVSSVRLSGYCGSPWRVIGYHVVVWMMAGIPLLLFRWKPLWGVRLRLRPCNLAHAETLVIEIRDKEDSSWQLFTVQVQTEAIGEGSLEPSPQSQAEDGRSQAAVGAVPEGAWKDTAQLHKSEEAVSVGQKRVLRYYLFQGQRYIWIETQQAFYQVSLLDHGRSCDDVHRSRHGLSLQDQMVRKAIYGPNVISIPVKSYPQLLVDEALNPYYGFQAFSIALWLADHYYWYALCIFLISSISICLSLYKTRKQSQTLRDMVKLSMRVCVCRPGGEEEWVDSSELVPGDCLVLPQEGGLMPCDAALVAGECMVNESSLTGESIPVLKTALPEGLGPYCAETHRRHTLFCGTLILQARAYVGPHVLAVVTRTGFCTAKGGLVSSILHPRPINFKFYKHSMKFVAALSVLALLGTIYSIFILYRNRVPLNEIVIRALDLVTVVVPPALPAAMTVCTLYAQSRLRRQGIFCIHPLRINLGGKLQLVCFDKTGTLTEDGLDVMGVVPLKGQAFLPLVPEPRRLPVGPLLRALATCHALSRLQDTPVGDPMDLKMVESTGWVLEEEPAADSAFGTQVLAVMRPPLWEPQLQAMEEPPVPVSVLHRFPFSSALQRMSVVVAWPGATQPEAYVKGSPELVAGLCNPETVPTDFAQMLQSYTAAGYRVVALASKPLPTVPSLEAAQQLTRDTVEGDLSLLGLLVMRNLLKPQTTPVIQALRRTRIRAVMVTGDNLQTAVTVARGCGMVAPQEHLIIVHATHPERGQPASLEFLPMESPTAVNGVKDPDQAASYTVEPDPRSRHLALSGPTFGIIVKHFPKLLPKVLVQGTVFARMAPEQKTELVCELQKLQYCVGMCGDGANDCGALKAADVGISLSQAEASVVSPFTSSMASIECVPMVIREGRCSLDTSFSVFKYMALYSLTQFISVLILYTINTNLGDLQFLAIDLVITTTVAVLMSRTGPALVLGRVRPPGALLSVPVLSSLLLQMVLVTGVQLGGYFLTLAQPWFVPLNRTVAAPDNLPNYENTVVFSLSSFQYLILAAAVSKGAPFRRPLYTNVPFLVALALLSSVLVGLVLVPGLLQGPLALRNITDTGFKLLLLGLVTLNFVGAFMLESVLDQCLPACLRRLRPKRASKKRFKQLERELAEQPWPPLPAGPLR
UniProt Q9NQ88: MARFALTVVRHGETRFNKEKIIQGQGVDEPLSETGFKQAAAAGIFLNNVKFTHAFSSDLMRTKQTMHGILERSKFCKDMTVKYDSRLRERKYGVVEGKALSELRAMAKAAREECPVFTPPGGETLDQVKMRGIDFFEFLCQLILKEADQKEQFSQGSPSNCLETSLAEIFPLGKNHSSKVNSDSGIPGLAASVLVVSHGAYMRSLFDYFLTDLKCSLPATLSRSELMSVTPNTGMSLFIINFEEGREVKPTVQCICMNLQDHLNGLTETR
UniProt Q9NZ52: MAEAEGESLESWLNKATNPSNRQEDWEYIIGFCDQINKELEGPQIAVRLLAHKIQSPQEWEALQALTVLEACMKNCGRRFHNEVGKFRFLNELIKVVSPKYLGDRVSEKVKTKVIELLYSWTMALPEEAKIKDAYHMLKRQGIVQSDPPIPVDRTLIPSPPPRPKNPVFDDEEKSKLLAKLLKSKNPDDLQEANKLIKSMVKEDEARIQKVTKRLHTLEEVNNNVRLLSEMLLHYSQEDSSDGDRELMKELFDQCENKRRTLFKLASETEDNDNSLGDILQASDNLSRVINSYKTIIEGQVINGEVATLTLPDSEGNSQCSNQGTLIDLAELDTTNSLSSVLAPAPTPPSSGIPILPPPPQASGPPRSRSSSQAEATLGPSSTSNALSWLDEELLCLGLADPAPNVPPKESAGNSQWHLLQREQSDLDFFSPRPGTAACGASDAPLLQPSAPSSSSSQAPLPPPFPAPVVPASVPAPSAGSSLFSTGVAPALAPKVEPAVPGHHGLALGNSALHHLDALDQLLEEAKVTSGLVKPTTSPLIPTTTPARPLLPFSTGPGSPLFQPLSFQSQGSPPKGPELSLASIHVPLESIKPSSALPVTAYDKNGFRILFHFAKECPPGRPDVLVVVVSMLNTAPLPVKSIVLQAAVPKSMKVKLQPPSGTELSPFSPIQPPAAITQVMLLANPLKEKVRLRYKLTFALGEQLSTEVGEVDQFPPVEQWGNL

Compound: Nc1ncnc2c1ncn2[C@@H]1O[C@H](COP(=O)(O)OP(=O)(O)OP(=O)(O)O)[C@@H](O)[C@H]1O [adenosine triphosphate]
Assay: NP40-soluble protein abundance relative to vehicle (solubility fold change) (ratio); higher = more soluble protein in presence of ATP
Settings: concentration: 0.1mM
Summary of the method: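 Jurkat crude lysate prepared with a Dounce homogeniser was treated at eight concentrations spanning 0.1 to 10 mM, 10 min at room temperature then 3 min at 37 °C. Solubilisation with 0.8% NP40 and benzonase and ultracentrifugation preceded TMT labelling of the supernatant for LC-MS/MS. Fold change against the detergent-processed vehicle was determined per replicate from vsn-normalised intensities, across three independent experiments.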

Row | Target | NP40-soluble protein abundance
1 | MRPL40 (UniProt Q9NQ50) | 0.956 ± 0.17
2 | UniProt Q9NXR1 and related entries | 0.938 ± 0.064
3 | UniProt Q9NUT2 and related entries | 1.05 ± 0.063
4 | UniProt Q9P0N9 and related entries | 0.974 ± 0.024
5 | UniProt Q9NRG9 and related entries | 1.08 ± 0.084
6 | UniProt Q9NX74 | 1.04 ± 0.034
7 | MYO5C (UniProt Q9NQX4) | 0.973 ± 0.026
8 | EXOSC3 (UniProt Q9NQT5) | 1.02 ± 0.057
9 | UniProt Q9NXF7 | 0.993 ± 0.05
10 | UniProt Q9NQC7 and related entries | 1 ± 0.07
11 | UniProt Q9NPA0 | 1 ± 0.043
12 | UniProt Q9NRP2 | 0.941 ± 0.22
13 | CMTM6 (UniProt Q9NX76) | 0.946 ± 0.07
14 | HINT3 (UniProt Q9NQE9) | 1.02 ± 0.045
15 | UniProt Q9NV88 and related entries | 1.03 ± 0.046
16 | PDLIM7 (UniProt Q9NR12) | 1 ± 0.024
17 | UniProt Q9NVJ2 | 0.944 ± 0.04
18 | NSMCE4A (UniProt Q9NXX6) | 1.04 ± 0.021
19 | CHMP5 (UniProt Q9NZZ3) | 0.916 ± 0.14

Row | Target | NP40-soluble protein abundance
20 | THYN1 (UniProt Q9P016) | 0.942 ± 0.056
21 | IGF2BP1 (UniProt Q9NZI8) | 1.03 ± 0.031
22 | WDR70 (UniProt Q9NW82) | 0.974 ± 0.056
23 | CWC15 (UniProt Q9P013) | 0.929 ± 0.076
24 | MPP6 (UniProt Q9NZW5) | 1.04 ± 0.073
25 | UniProt Q9NUI1 and related entries | 0.999 ± 0.023
26 | CISD1 (UniProt Q9NZ45) | 0.945 ± 0.068
27 | MRPL39 (UniProt Q9NYK5) | 0.968 ± 0.097
28 | GNL3L (UniProt Q9NVN8) | 1 ± 0.081
29 | SIRT5 (UniProt Q9NXA8) | 1.01 ± 0.073
30 | KLHL11 (UniProt Q9NVR0) | 1.06 ± 0.12
31 | UniProt Q9NZD8 and related entries | 1.09 ± 0.069
32 | MRPL15 (UniProt Q9P015) | 0.981 ± 0.15
33 | NECAP2 (UniProt Q9NVZ3) | 1 ± 0.019
34 | UniProt Q9NQ11 and related entries | 0.948 ± 0.21
35 | UniProt Q9NUS5 | 1.019 ± 0.0058
36 | CCDC88C (UniProt Q9P219) | 1.01 ± 0.022
37 | UniProt Q9NQ88 | 0.983 ± 0.021
38 | GGA3 (UniProt Q9NZ52) | 1.008 ± 0.0056

Same assay, conditions: concentration: 0.5mM

Row | Target | NP40-soluble protein abundance
39 | MRPL40 (UniProt Q9NQ50) | 0.963 ± 0.13
40 | UniProt Q9NXR1 and related entries | 0.939 ± 0.085
41 | UniProt Q9NUT2 and related entries | 1 ± 0.024
42 | UniProt Q9P0N9 and related entries | 0.98 ± 0.052
43 | UniProt Q9NRG9 and related entries | 1.02 ± 0.079
44 | UniProt Q9NX74 | 1.05 ± 0.14
45 | MYO5C (UniProt Q9NQX4) | 0.977 ± 0.032
46 | EXOSC3 (UniProt Q9NQT5) | 1.09 ± 0.063
47 | UniProt Q9NXF7 | 0.957 ± 0.11
48 | UniProt Q9NQC7 and related entries | 1 ± 0.021
49 | UniProt Q9NPA0 | 0.996 ± 0.013
50 | UniProt Q9NRP2 | 0.951 ± 0.35
51 | CMTM6 (UniProt Q9NX76) | 0.927 ± 0.11
52 | HINT3 (UniProt Q9NQE9) | 1.06 ± 0.1
53 | UniProt Q9NV88 and related entries | 1.07 ± 0.038
54 | PDLIM7 (UniProt Q9NR12) | 0.9909 ± 0.0089
55 | UniProt Q9NVJ2 | 1.05 ± 0.097
56 | NSMCE4A (UniProt Q9NXX6) | 1.04 ± 0.022
57 | CHMP5 (UniProt Q9NZZ3) | 0.89 ± 0.16

Row | Target | NP40-soluble protein abundance
58 | THYN1 (UniProt Q9P016) | 0.964 ± 0.061
59 | IGF2BP1 (UniProt Q9NZI8) | 1.03 ± 0.038
60 | WDR70 (UniProt Q9NW82) | 1.02 ± 0.048
61 | CWC15 (UniProt Q9P013) | 0.901 ± 0.091
62 | MPP6 (UniProt Q9NZW5) | 1.03 ± 0.039
63 | UniProt Q9NUI1 and related entries | 0.95 ± 0.043
64 | CISD1 (UniProt Q9NZ45) | 0.947 ± 0.091
65 | MRPL39 (UniProt Q9NYK5) | 1.04 ± 0.14
66 | GNL3L (UniProt Q9NVN8) | 1.06 ± 0.011
67 | SIRT5 (UniProt Q9NXA8) | 0.988 ± 0.036
68 | KLHL11 (UniProt Q9NVR0) | 1.05 ± 0.12
69 | UniProt Q9NZD8 and related entries | 1.06 ± 0.091
70 | MRPL15 (UniProt Q9P015) | 1.06 ± 0.08
71 | NECAP2 (UniProt Q9NVZ3) | 0.986 ± 0.027
72 | UniProt Q9NQ11 and related entries | 0.877 ± 0.11
73 | UniProt Q9NUS5 | 0.978 ± 0.099
74 | CCDC88C (UniProt Q9P219) | 1 ± 0.046
75 | UniProt Q9NQ88 | 1.01 ± 0.033
76 | GGA3 (UniProt Q9NZ52) | 1 ± 0.039
